# The supplement of paper PMC8728848
# The other results are listed elsewhere or left out.
# Assays:
# Experiment in all cases: glycan array binding signal (z-score within array); higher = stronger binding
# Conditions in all cases: glycan notation: IUPAC condensed, linker removed
# [1] = target: Gal(b1-3)GalNAc(b1-3)Gal
# Outline: (§1)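 Glycan array data were curated from 3228 arrays in the Consortium for Functional Glycomics database and kept only where the protein sequence was available. Glycan names were converted to IUPAC-condensed notation, and columns mapping to the same glycan were averaged. The binding signal is a within-array Z-score, averaged across arrays of the same protein sequence at different concentrations or buffers and across linkers. Negative Z-scores can be read as non-binding.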
# [2] = target: Gal(b1-3)GalNAc(b1-3)Gal(a1-4)Gal(b1-4)Glc
# Outline: as §1
# [3] = target: Gal(b1-3)GalNAc(b1-4)Gal(b1-4)Glc
# Outline: as §1
# [4] = target: Gal(b1-3)GalNAc(b1-4)[Neu5Ac(a2-3)]Gal(b1-4)Glc
# Outline: as §1
# [5] = target: Gal(b1-3)GlcNAc
# Outline: as §1
# [6] = target: Gal(b1-3)GlcNAc(a1-3)Gal(b1-4)GlcNAc
# Outline: as §1
# [7] = target: Gal(b1-3)GlcNAc(a1-6)Gal(b1-4)GlcNAc
# Outline: as §1
# [8] = target: Gal(b1-3)GlcNAc(b1-2)Man
# Outline: as §1
# [9] = target: Gal(b1-3)GlcNAc(b1-2)Man(a1-3)[Gal(b1-3)GlcNAc(b1-2)Man(a1-6)]Man(b1-4)GlcNAc(b1-4)GlcNAc
# Outline: as §1
# [10] = target: Gal(b1-3)GlcNAc(b1-2)Man(a1-3)[Gal(b1-3)GlcNAc(b1-2)Man(a1-6)]Man(b1-4)GlcNAc(b1-4)[Fuc(a1-6)]GlcNAc
# Outline: as §1
# [11] = target: Gal(b1-3)GlcNAc(b1-2)Man(a1-3)[GlcNAc(b1-4)][Gal(b1-3)GlcNAc(b1-2)Man(a1-6)]Man(b1-4)GlcNAc(b1-4)GlcNAc
# Outline: as §1
# [12] = target: Gal(b1-3)GlcNAc(b1-2)[Gal(b1-3)GlcNAc(b1-6)]Man(a1-6)[Gal(b1-3)GlcNAc(b1-2)Man(a1-3)]Man(b1-4)GlcNAc(b1-4)GlcNAc
# Outline: as §1
# [13] = target: Gal(b1-3)GlcNAc(b1-3)Gal(b1-3)GlcNAc
# Outline: as §1
# [14] = target: Gal(b1-3)GlcNAc(b1-3)Gal(b1-4)Glc
# Outline: as §1
# [15] = target: Gal(b1-3)GlcNAc(b1-3)Gal(b1-4)GlcNAc
# Outline: as §1
# [16] = target: Gal(b1-3)GlcNAc(b1-3)Gal(b1-4)GlcNAc(b1-2)Man(a1-3)[Gal(b1-3)GlcNAc(b1-3)Gal(b1-4)GlcNAc(b1-2)Man(a1-6)]Man(b1-4)GlcNAc(b1-4)GlcNAc
# Outline: as §1
# [17] = target: Gal(b1-3)GlcNAc(b1-3)Gal(b1-4)GlcNAc(b1-2)[Gal(b1-3)GlcNAc(b1-3)Gal(b1-4)GlcNAc(b1-6)]Man(a1-6)[Gal(b1-3)GlcNAc(b1-3)Gal(b1-4)GlcNAc(b1-2)Man(a1-3)]Man(b1-4)GlcNAc(b1-4)[Fuc(a1-6)]GlcNAc
# Outline: as §1
# [18] = target: Gal(b1-3)GlcNAc(b1-3)Gal(b1-4)GlcNAc(b1-3)Gal(b1-4)GlcNAc(b1-2)[Gal(b1-3)GlcNAc(b1-3)Gal(b1-4)GlcNAc(b1-3)Gal(b1-4)GlcNAc(b1-6)]Man(a1-6)[Gal(b1-3)GlcNAc(b1-3)Gal(b1-4)GlcNAc(b1-3)Gal(b1-4)GlcNAc(b1-2)Man(a1-3)]Man(b1-4)GlcNAc(b1-4)[Fuc(a1-6)]GlcNAc
# Outline: as §1
# [19] = target: Gal(b1-3)GlcNAc(b1-3)Gal(b1-4)GlcNAc(b1-6)[Gal(b1-3)GlcNAc(b1-3)]Gal(b1-4)Glc
# Outline: as §1
# [20] = target: Gal(b1-3)GlcNAc(b1-3)Gal(b1-4)[Fuc(a1-3)]GlcNAc
# Outline: as §1
# [21] = target: Gal(b1-3)GlcNAc(b1-3)Gal(b1-4)[Fuc(a1-3)]GlcNAc(b1-6)[Gal(b1-3)GlcNAc(b1-3)]Gal(b1-4)Glc
# Outline: as §1
# [22] = target: Gal(b1-3)GlcNAc(b1-3)GalNAc
# Outline: as §1
# [23] = target: Gal(b1-3)GlcNAc(b1-6)Gal(b1-4)GlcNAc
# Outline: as §1
# [24] = target: Gal(b1-3)GlcNAc(b1-6)GalNAc
# Outline: as §1
# [25] = target: Gal(b1-3)GlcNAc(b1-6)[Gal(b1-3)]GalNAc
# Outline: as §1
# [26] = target: Gal(b1-3)GlcNAc6S
# Outline: as §1
# [27] = target: Gal(b1-3)[Fuc(a1-4)]GlcNAc
# Outline: as §1
# [28] = target: Gal(b1-3)[Fuc(a1-4)]GlcNAc(b1-2)Man
# Outline: as §1
# [29] = target: Gal(b1-3)[Fuc(a1-4)]GlcNAc(b1-2)Man(a1-3)[Gal(b1-3)[Fuc(a1-4)]GlcNAc(b1-2)Man(a1-6)]Man(b1-4)GlcNAc(b1-4)GlcNAc
# Outline: as §1
# [30] = target: Gal(b1-3)[Fuc(a1-4)]GlcNAc(b1-2)Man(a1-3)[Gal(b1-3)[Fuc(a1-4)]GlcNAc(b1-2)Man(a1-6)]Man(b1-4)GlcNAc(b1-4)[Fuc(a1-6)]GlcNAc
# Outline: as §1
# [31] = target: Gal(b1-3)[Fuc(a1-4)]GlcNAc(b1-3)Gal(b1-3)[Fuc(a1-4)]GlcNAc
# Outline: as §1
# [32] = target: Gal(b1-3)[Fuc(a1-4)]GlcNAc(b1-3)Gal(b1-4)GlcNAc
# Outline: as §1
# [33] = target: Gal(b1-3)[Fuc(a1-4)]GlcNAc(b1-3)Gal(b1-4)[Fuc(a1-3)]GlcNAc
# Outline: as §1
# [34] = target: Gal(b1-3)[Fuc(a1-4)]GlcNAc(b1-6)GalNAc
# Outline: as §1
# [35] = target: Gal(b1-3)[GlcNAc(b1-6)]GalNAc
# Outline: as §1
# [36] = target: Gal(b1-3)[Neu5Ac(a2-6)]GalNAc
# Outline: as §1
# [37] = target: Gal(b1-3)[Neu5Ac(a2-6)]GlcNAc(b1-4)Gal(b1-4)Glc
# Outline: as §1
# [38] = target: Gal(b1-3)[Neu5Ac(a2-6)]GlcNAc(b1-6)Gal(b1-4)Glc
# Outline: as §1
# [39] = target: Gal(b1-3)[Neu5Ac(b2-6)]GalNAc
# Outline: as §1
# [40] = target: Gal(b1-4)Gal
# Outline: as §1
# [41] = target: Gal(b1-4)GalNAc(a1-3)[Fuc(a1-2)]Gal(b1-4)GlcNAc
# Outline: as §1
# [42] = target: Gal(b1-4)GalNAc(b1-3)[Fuc(a1-2)]Gal(b1-4)GlcNAc
# Outline: as §1
# [43] = target: Gal(b1-4)Glc
# Outline: as §1
# [44] = target: Gal(b1-4)Glc6S
# Outline: as §1
# [45] = target: Gal(b1-4)GlcNAc
# Outline: as §1
binder,measurement,setting,value
"CRT-1 (Homo sapiens), P27797 (protein) MLLSVPLLLGLLGLAVAEPAVYFKEQFLDGDGWTSRWIESKHKSDFGKFVLSSGKFYGDEEKDKGLQTSQDARFYALSASFEPFSNKGQTLVVQFTVKHEQNIDCGGGYVKLFPNSLDQTDMHGDSEYNIMFGPDICGPGTKKVHVIFNYKGKNVLINKDIRCKDDEFTHLYTLIVRPDNTYEVKIDNSQVESGSLEDDWDFLPPKKIKDPDASKPEDWDERAKIDDPTDSKPEDWDKPEHIPDPDAKKPEDWDEEMDGEWEPPVIQNPEYKGEWKPRQIDNPDYKGTWIHPEIDNPEYSPDPSIYAYDNFGVLGLDLWQVKSGTIFDNFLITNDEAYAEEFGNETWGVTKAAEKQMKDKQDEEQRLKEEEEDKKRKEEEEAEDKEDDEDKDEDEEDEEDKEEDEEEDVPGQAKDEL",glycan array binding signal (z-score),[1],-0.571
same,glycan array binding signal (z-score),[2],-0.599
same,glycan array binding signal (z-score),[3],-0.123
same,glycan array binding signal (z-score),[4],-0.157
same,glycan array binding signal (z-score),[5],-0.063
same,glycan array binding signal (z-score),[6],0.211
same,glycan array binding signal (z-score),[7],-0.382
same,glycan array binding signal (z-score),[8],-0.062
same,glycan array binding signal (z-score),[9],0.523
same,glycan array binding signal (z-score),[10],0.223
same,glycan array binding signal (z-score),[11],-0.882
same,glycan array binding signal (z-score),[12],0.58
same,glycan array binding signal (z-score),[13],-0.577
same,glycan array binding signal (z-score),[14],-0.33
same,glycan array binding signal (z-score),[15],-0.275
same,glycan array binding signal (z-score),[16],-0.574
same,glycan array binding signal (z-score),[17],1.48
same,glycan array binding signal (z-score),[18],0.15
same,glycan array binding signal (z-score),[19],0.174
same,glycan array binding signal (z-score),[20],-0.21
same,glycan array binding signal (z-score),[21],0.691
same,glycan array binding signal (z-score),[22],-0.652
same,glycan array binding signal (z-score),[23],-0.021
same,glycan array binding signal (z-score),[24],0.8
same,glycan array binding signal (z-score),[25],-1.19
same,glycan array binding signal (z-score),[26],0.611
same,glycan array binding signal (z-score),[27],-0.587
same,glycan array binding signal (z-score),[28],0.701
same,glycan array binding signal (z-score),[29],2.33
same,glycan array binding signal (z-score),[30],0.345
same,glycan array binding signal (z-score),[31],-0.24
same,glycan array binding signal (z-score),[32],-0.382
same,glycan array binding signal (z-score),[33],-0.211
same,glycan array binding signal (z-score),[34],0.703
same,glycan array binding signal (z-score),[35],-0.047
same,glycan array binding signal (z-score),[36],-0.598
same,glycan array binding signal (z-score),[37],-0.561
same,glycan array binding signal (z-score),[38],-0.579
same,glycan array binding signal (z-score),[39],-0.892
same,glycan array binding signal (z-score),[40],-0.253
same,glycan array binding signal (z-score),[41],-0.411
same,glycan array binding signal (z-score),[42],-0.82
same,glycan array binding signal (z-score),[43],-0.057
same,glycan array binding signal (z-score),[44],0.043
same,glycan array binding signal (z-score),[45],-0.282

# Some of the entries so far, as tab-separated lines:
binder	measurement	setting	value
CRT-1 (Homo sapiens), P27797 (protein) MLLSVPLLLGLLGLAVAEPAVYFKEQFLDGDGWTSRWIESKHKSDFGKFVLSSGKFYGDEEKDKGLQTSQDARFYALSASFEPFSNKGQTLVVQFTVKHEQNIDCGGGYVKLFPNSLDQTDMHGDSEYNIMFGPDICGPGTKKVHVIFNYKGKNVLINKDIRCKDDEFTHLYTLIVRPDNTYEVKIDNSQVESGSLEDDWDFLPPKKIKDPDASKPEDWDERAKIDDPTDSKPEDWDKPEHIPDPDAKKPEDWDEEMDGEWEPPVIQNPEYKGEWKPRQIDNPDYKGTWIHPEIDNPEYSPDPSIYAYDNFGVLGLDLWQVKSGTIFDNFLITNDEAYAEEFGNETWGVTKAAEKQMKDKQDEEQRLKEEEEDKKRKEEEEAEDKEDDEDKDEDEEDEEDKEEDEEEDVPGQAKDEL	glycan array binding signal (z-score)	[43]	-0.057
same	glycan array binding signal (z-score)	[44]	0.043
same	glycan array binding signal (z-score)	[45]	-0.282
